{"source": "patent US9402839B2", "about": "“Selective targeting agents for mitochondria” (University of Pittsburgh—Of the Commonwealth System of …, priority 2006, dated 2016)", "system": "rats subjected to volume-controlled hemorrhagic shock", "assay": "Survival of rats subjected to volume-controlled hemorrhagic shock", "type": "in vivo, rat", "conditions": "End of second phase of hemorrhage; 2 μmol/kg i.v.", "text": "Surgical procedures to obtain vascular access. All study protocols using rats followed the guidelines for the use of experimental animals of the US National Institutes of Health and were approved by the Institutional Animal Care and Use Committee at the University of Pittsburgh.\nMale specific pathogen-free Sprague Dawley rats (CHARLES RIVER LABORATORIES, Wilmington, Mass.), weighing 150-250 g, were housed in a temperature-controlled environment with a 12-h light/dark cycle. The rats had free access to food and water. For experiments, rats were anesthetized with intramuscular ketamine HCl (30 mg/kg) and intraperitoneal sodium pentobarbital (35 mg/kg). Animals were kept in a supine position during the experiments. Lidocaine (0.5 ml of a 0.5% solution) was injected subcutaneously to provide local anesthesia at surgical cut-down sites. […]\nSurvival of rats subjected to volume-controlled hemorrhagic shock. Following surgical preparation and a 5-min stabilization period to obtain baseline readings, rats were subjected to hemorrhagic shock. […]\nBlood pressure was recorded continuously using a commercial strain-gauge transducer, amplifier, and monitor (S90603a, SPACELABS, Redmond, Wash.). […] Hemoglobin concentration [Hb], lactate and glucose concentration were determined using an auto-analyzer (Model ABL 725, […], Westlake, Ohio). […]"}
{"smiles": "CC(C)C[C@@H](/C=C/[C@H](Cc1ccccc1)C(=O)N1CCC[C@H]1C(=O)N[C@H](C(=O)N[C@@H](CCCNC(=O)OCc1ccccc1)C(=O)NC1CC(C)(C)N([O])C(C)(C)C1)C(C)C)NC(=O)OC(C)(C)C", "note": "[XJB-5-131]", "values": [{"measurement": "Blood lactate concentration", "value": "5.6 ± 1.2", "unit": "mEq/L"}]}
